Patent US12157772B2, “Prophylactic agent, onset-suppressing agent or therapeutic agent for progressive immune demyelinating diseases” (NATIONAL CENTER OF NEUROLOGY AND PSYCHIATRY, priority 2016, dated 2024)
At least one compound was matched to its structure with a doubt left.

System: NR4A2-deficient mouse in which monophasic EAE had been induced
Assay: EAE clinical score in NR4A2-deficient mice with induced monophasic EAE
Format: in vivo
Settings: intraperitoneally every other day from day 4 after the induction; FIG. 17
Description: Into each CD4-Cre/NR4A2^fl/fl mouse in which monophasic EAE had been induced in a similar manner to the above 1.(3), L-dopa or a placebo (DMSO and PBS) was intraperitoneally injected every other day from day 4 after the induction.

## CC(C)C[C@H]1C(=O)N2CCC[C@H]2[C@]2(O)O[C@](NC(=O)[C@@H]3C=C4c5cccc6[nH]c(Br)c(c56)C[C@H]4N(C)C3)(C(C)C)C(=O)N12 [bromocriptine]
  late-stage EAE pathology (EAE scores): suppressed significantly
